Assay results reported in patent US20250032430A1, “USES OF RHODOQUINONE FOR THE TREATMENT OF DISEASE” (Whitehead Institute for Biomedical Research, priority 2021, published 2025).

How the values were obtained:
[1] = Quinone detection in mitochondria of cultured 143B cells; parameters: species or system human; details: endogenous
kidney = assay: Kidney tissue cultured ex vivo (quinone levels, fumarate reduction); parameters: species or system mouse; details: petri dish
Experimental: Ex vivo stable isotope tracing on tissues: Tissues were excised from mice and washed in 1×PBS. Tissues were then cut into small pieces and placed in the appropriate stable isotope tracing media. Stable isotope tracing media contained either ^13C5^15N2-glutamine (Sigma) or 13C4-aspartate (Sigma) dissolved in DMEM, 5% FBS, 1% P/S. For ex vivo tracing experiments performed on the brain, the same media was used without FBS. Tissues were incubated for the designated time at 37° C. in a normal or hypoxia tissue culture incubator. Tissues were removed from the media, washed with PBS, and flash frozen in liquid nitrogen. Samples could be stored at −80° C. until metabolites were isolated.
Rhodoquinone-9 is a previously unknown mammalian metabolite. Without wishing to be bound by any particular theory, it is believed that since the level of rhodoquinone-9 decreases overtime when the kidney is cultured ex vivo, that cultured media is missing a component of the rhodoquinone biosynthetic pathway, and that this component may be coming from the gut microbiome.

Compound	detection in mitochondria purified from 143B cell line cultured in vitro [1]	levels in kidney tissue cultured ex vivo over time (kidney)
COC1=C(OC)C(=O)C(C/C=C(\C)CC/C=C(\C)CC/C=C(\C)CC/C=C(\C)CC/C=C(\C)CC/C=C(\C)CC/C=C(\C)CC/C=C(\C)CC/C=C(\C)CCC=C(C)C)=C(C)C1=O [ubiquinone-10]	detected	
COC1=C(OC)C(=O)C(C/C=C(\C)CC/C=C(\C)CC/C=C(\C)CC/C=C(\C)CC/C=C(\C)CC/C=C(\C)CC/C=C(\C)CC/C=C(\C)CC/C=C(\C)CCC=C(C)C)=C(C)C1=O [ubiquinone]		remained unchanged
rhodoquinone-9		decreased overtime
rhodoquinone-10	not detected	
